Experimental data as given in patent US20210130409 (published 2021).

Test: general procedure: Fmoc solid-phase peptide synthesis; 2-chlorotrityl chloride resin
[1] = whole synthesis, UPLC (Aquity, CSH C18), UV 215 nm/254 nm

Substance: HCin[Orn-Pro-D-Cha-Trp(Boc)-Arg(Pbf)]
- crude purity (method not given) (late stage modification step, UPLC (Aquity, CSH C18), UV 215 nm/254 nm): 71.9%

Substance: HCin-[Orn-Pro-D-Cha-Trp-Arg]
- crude HPLC purity (whole synthesis, HPLC area %): 83.76%
- crude HPLC purity [1]: 84%
- crude purity (method not given) [1]: 63.7%
- final HPLC purity [1]: 99.75%
- crude yield (whole synthesis, overall USP yield from Boc-Orn(Fmoc)-OH): 24%
- crude yield (whole synthesis, scale 100 g): approximately 36%
- crude yield (whole synthesis, scale 200 g): approximately 50%
